Results published in PubChem BioAssay AID330 (DTP/NCI, 2004).
The list shows only some results of the screen, not a fair sample: it gathers some chemical classes. Not every dose and run of a compound is shown. T/C: endpoint of the treated group in % of that of the vehicle group. Some doses have a count of surviving animals in place of a T/C: the source holds a T/C of zero for them, seemingly a mark for toxic or unscored doses. Some survivor counts are full or nearly so, which does not show that the dose was tolerated: survival well below the control is almost never listed, so the zero probably covers shortened survival too. Counts of survivors are from the toxicity check (mostly the fifth day) where no day follows; animals may have died later. Schedule codes are those of the source, read here as Q, the interval in days (D) or hours (H), X, the number of doses. Where survival is the endpoint, this PubChem deposit counts one and a half times the control or more as active, and values a quarter to a half above the control carry no call in these data; other NCI protocols may use other cut-offs. Some doses were run more than once; the values are given in rising order. Some entries show no survivor count and are marked so; the dose need not have been tolerated. Additions like (4×) stand for listed records that agree. Some complexes appear as separate parts, the way the source draws them; their charges need not add up. Some T/C values are followed by the survivors on the day toxicity was checked, most often the fifth; where neither a count nor a note follows, no animal had died by that day.

Tested on: P388 leukemia ip, CD2F1 mice, survival T/C
Assay: NCI In Vivo Anticancer Drug Screen. Data for tumor model P388 Leukemia (intraperitoneal) in CD2F1 (CDF1) mice
Conditions: T/C endpoint: median survival time, higher T/C = longer survival
[1] = dose: 50.0 mg/kg/injection, schedule: Q01DX005 (ip), vehicle: Klucel (hydroxypropylcellulose) (HPC)
[2] = dose: 100.0 mg/kg/injection, schedule: Q01DX005 (ip), vehicle: Klucel (hydroxypropylcellulose) (HPC)
[3] = dose: 200.0 mg/kg/injection, schedule: Q01DX005 (ip), vehicle: Klucel (hydroxypropylcellulose) (HPC)
[4] = dose: 100.0 mg/kg/injection, schedule: Q04DX002 (ip), vehicle: saline with Tween-80
[5] = dose: 200.0 mg/kg/injection, schedule: Q04DX002 (ip), vehicle: saline with Tween-80
[6] = dose: 400.0 mg/kg/injection, schedule: Q04DX002 (ip), vehicle: saline with Tween-80
[7] = dose: 100.0 mg/kg/injection, schedule: Q01DX001 (ip), vehicle: Klucel (hydroxypropylcellulose) (HPC)
[8] = dose: 200.0 mg/kg/injection, schedule: Q01DX001 (ip), vehicle: Klucel (hydroxypropylcellulose) (HPC)
[9] = dose: 400.0 mg/kg/injection, schedule: Q01DX001 (ip), vehicle: Klucel (hydroxypropylcellulose) (HPC)
[10] = dose: 60.0 mg/kg/injection, schedule: Q01DX005 (ip), vehicle: saline with Tween-80
[11] = dose: 120.0 mg/kg/injection, schedule: Q01DX005 (ip), vehicle: saline with Tween-80
[12] = dose: 240.0 mg/kg/injection, schedule: Q01DX005 (ip), vehicle: saline with Tween-80

O=[N+]([O-])c1ccc(N/N=C2/CCCC/C(=N\Nc3ccc([N+](=O)[O-])cc3[N+](=O)[O-])CS(=O)(=O)C2)c([N+](=O)[O-])c1
T/C (dose: 25.0 mg/kg/injection, schedule: Q01DX005 (ip), vehicle: Klucel + Tween-80): 99 % of control
T/C (dose: 50.0 mg/kg/injection, schedule: Q01DX005 (ip), vehicle: Klucel + Tween-80): 97 % of control
T/C (dose: 100.0 mg/kg/injection, schedule: Q01DX005 (ip), vehicle: Klucel + Tween-80): 96 % of control

C/C(N)=N\P(=O)(O)O
T/C [1]: 101 % of control
survivor count [1]: 5 of 6
T/C [2]: 97 and 101 % of control
T/C [3]: 100 and 104 % of control

O[C@H](CNCCCl)[C@H](O)CNCCCl
T/C (dose: 0.63 mg/kg/injection, schedule: Q04DX003 (ip), vehicle: saline): 107 % of control
T/C (dose: 1.25 mg/kg/injection, schedule: Q01DX009 (ip), vehicle: saline): 119 % of control
T/C (dose: 1.25 mg/kg/injection, schedule: Q04DX003 (ip), vehicle: saline): 100 % of control
T/C (dose: 2.5 mg/kg/injection, schedule: Q01DX009 (ip), vehicle: saline): 142 % of control
T/C (dose: 2.5 mg/kg/injection, schedule: Q04DX003 (ip), vehicle: saline): 115 % of control
T/C (dose: 5.0 mg/kg/injection, schedule: Q01DX009 (ip), vehicle: saline): 190 % of control
T/C (dose: 5.0 mg/kg/injection, schedule: Q04DX003 (ip), vehicle: saline): 126 % of control
T/C (dose: 12.5 mg/kg/injection, schedule: Q04DX003 (ip), vehicle: saline with Tween-80): 154 % of control
T/C (dose: 25.0 mg/kg/injection, schedule: Q04DX003 (ip), vehicle: saline with Tween-80): 204 % of control
T/C (dose: 33.0 mg/kg/injection, schedule: Q04DX003 (ip), vehicle: saline): 218 % of control
T/C (dose: 50.0 mg/kg/injection, schedule: Q04DX003 (ip), vehicle: saline with Tween-80): 240 % of control
T/C (dose: 50.0 mg/kg/injection, schedule: Q04DX003 (ip), vehicle: saline): 181 % of control
survivor count (dose: 75.0 mg/kg/injection, schedule: Q04DX003 (ip), vehicle: saline): 5 of 6
survivor count (dose: 100.0 mg/kg/injection, schedule: Q04DX003 (ip), vehicle: saline): 6 of 6
survivor count (dose: 200.0 mg/kg/injection, schedule: Q04DX003 (ip), vehicle: saline): 6 of 6
survivor count (dose: 400.0 mg/kg/injection, schedule: Q04DX003 (ip), vehicle: saline): 0 of 6

CN(CCCl)/N=N/c1nc2nc[nH]c(=O)c2[nH]1
T/C [1]: 100 % of control
T/C [2]: 97 % of control
T/C [3]: 100 % of control

ClCC1CS1 (stereo not given)
T/C (dose: 100.0 mg/kg/injection, schedule: Q01DX009 (ip), vehicle: saline sonified): 150 % of control
T/C (dose: 200.0 mg/kg/injection, schedule: Q01DX009 (ip), vehicle: saline sonified): 165 % of control
T/C (dose: 400.0 mg/kg/injection, schedule: Q01DX009 (ip), vehicle: saline sonified): 90 % of control [4 of 6 alive]

Cc1ccc(N2CC=C(c3ccc(Cl)cc3)OP2(=O)Cl)cc1 (stereo not given)
T/C [4]: 107 % of control
T/C [5]: 105 % of control
T/C [6]: 116 % of control

N#[C][Sn]([CH2]c1ccccc1)([CH2]c1ccccc1)[CH2]c1ccccc1
T/C (dose: 100.0 mg/kg/injection, schedule: Q04DX003 (ip), vehicle: saline with Tween-80): 102 % of control
T/C (dose: 200.0 mg/kg/injection, schedule: Q04DX003 (ip), vehicle: saline with Tween-80): 100 % of control
T/C (dose: 400.0 mg/kg/injection, schedule: Q04DX003 (ip), vehicle: saline with Tween-80): 87 % of control [5 of 6 alive]

CC(C)(C)OP(OC(C)(C)C)OC(C)(C)C
T/C (dose: 50.0 mg/kg/injection, schedule: Q01DX009 (ip), vehicle: other): 104 % of control
T/C (dose: 100.0 mg/kg/injection, schedule: Q01DX009 (ip), vehicle: other): 101 % of control
T/C (dose: 200.0 mg/kg/injection, schedule: Q01DX009 (ip), vehicle: other): 90 % of control

O=[N+]([O-])c1cc([N+](=O)[O-])c(O)c([N+](=O)[O-])c1.c1ccc(CC2CCCN2)cc1
T/C (dose: 60.0 mg/kg/injection, schedule: Q01DX005 (ip), vehicle: saline): 104 % of control
T/C (dose: 120.0 mg/kg/injection, schedule: Q01DX005 (ip), vehicle: saline): 96 % of control
survivor count (dose: 240.0 mg/kg/injection, schedule: Q01DX005 (ip), vehicle: saline): 2 of 6

CC(C)OP(C)(=O)O.[Sm]
T/C (dose: 12.5 mg/kg/injection, schedule: Q01DX009 (ip), vehicle: saline with Tween-80): 99 % of control [survivor count not shown]
T/C (dose: 25.0 mg/kg/injection, schedule: Q01DX009 (ip), vehicle: saline with Tween-80): 94 % of control [survivor count not shown]
T/C (dose: 50.0 mg/kg/injection, schedule: Q01DX009 (ip), vehicle: saline with Tween-80): 91 % of control [survivor count not shown] (2×)

C[Si](C)(C)OC(=O)N(CCCl)CCCl
T/C (dose: 25.0 mg/kg/injection, schedule: Q01DX001 (ip), vehicle: Klucel (hydroxypropylcellulose) (HPC)): 116 % of control
T/C (dose: 50.0 mg/kg/injection, schedule: Q01DX001 (ip), vehicle: Klucel (hydroxypropylcellulose) (HPC)): 127 % of control
T/C [7]: 137 and 166 % of control
survivor count [8]: 2 of 6
survivor count [9]: 1 of 6

CC(C)OP(C)(=O)OC(C)C.CC(C)OP(C)(=O)OC(C)C.CC(C)OP(C)(=O)OC(C)C.CC(C)OP(C)(=O)OC(C)C.[Cd+2].[O-][Cl+3]([O-])([O-])O
T/C (dose: 12.5 mg/kg/injection, schedule: Q01DX009 (ip), vehicle: saline): 112 % of control [survivor count not shown]

CCCC/C=N\NC1=NC(C)(CCC2(C)N=C(N/N=C\CCCC)SP2(=O)Nc2ncccn2)P(=O)(Nc2ncccn2)S1 (stereo not given)
T/C [10]: 109 % of control
T/C [11]: 100 % of control
T/C [12]: 92 % of control

NC(N)=NP(=O)(Oc1ccccc1)Oc1ccccc1
T/C (dose: 50.0 mg/kg/injection, schedule: Q01DX009 (ip), vehicle: Klucel (hydroxypropylcellulose) (HPC)): 112 % of control
T/C (dose: 100.0 mg/kg/injection, schedule: Q01DX009 (ip), vehicle: Klucel (hydroxypropylcellulose) (HPC)): 101 % of control
T/C (dose: 200.0 mg/kg/injection, schedule: Q01DX009 (ip), vehicle: Klucel (hydroxypropylcellulose) (HPC)): 113 % of control

OC(SCCSC(O)C(Cl)(Cl)Cl)C(Cl)(Cl)Cl (stereo not given)
T/C [10]: 119 % of control
T/C [11]: 126 % of control
T/C [12]: 119 % of control

CC(C)OP(C)(=O)O.[Yb]
T/C [4]: 89 % of control [survivor count not shown]
T/C [5]: 98 % of control [survivor count not shown]
T/C [6]: 114 % of control [survivor count not shown]

CC(=O)Nc1ccc(N(CCCl)CCCl)cc1C
survivor count [7]: 6 of 6
survivor count [8]: 2 of 6
survivor count [9]: 0 of 6
